Assay results as given in publication PMC12238573 (Nature Communications, 2025).
No constants are given. Whether binding was seen depends on the method and setting. For some assays here: In cells and extracts the contact can be indirect. Some binding calls cover weakened binding; strength is not graded here.

Assays:
[1] = target: T1, PRPS1 (endogenous, mouse) (mouse (endogenous in NIH3T3 and C57BL/6 tissues)) (UniProt Q9D7G0); test: SEC; native whole-cell lysates of NIH3T3 CRISPR knockout lines (P2/AP1/AP2, P2/AP1, P1/AP2, P1, P2, AP2, AP1, AP1/AP2, P1/AP1 KO), some re-expressing PRPS2, AP1 or AP2 constructs, on Superose 6 Increase 3.2/300; fractions analysed by Western blot
T1 sequence: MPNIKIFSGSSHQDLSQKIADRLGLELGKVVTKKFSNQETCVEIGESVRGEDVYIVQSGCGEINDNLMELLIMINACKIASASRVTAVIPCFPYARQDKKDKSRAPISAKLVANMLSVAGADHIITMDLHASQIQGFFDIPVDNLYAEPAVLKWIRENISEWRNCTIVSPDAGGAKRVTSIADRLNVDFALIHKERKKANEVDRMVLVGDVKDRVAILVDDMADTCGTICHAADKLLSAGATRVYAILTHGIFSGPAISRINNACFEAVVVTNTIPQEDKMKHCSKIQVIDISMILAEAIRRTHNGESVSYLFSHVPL

[2] = target: T2, PRPS1-mNG11-ALFA (endogenous knock-in) (mouse (endogenous in NIH3T3)) (UniProt Q9D7G0); test: co-IP; ALFA-tag pulldown (anti-ALFA nanobody agarose) from lysate of NIH3T3 knock-in cells expressing PRPS1-ALFA from the endogenous locus; washes with 0.5 M NaCl, 0.5% Triton X-100
T2 sequence: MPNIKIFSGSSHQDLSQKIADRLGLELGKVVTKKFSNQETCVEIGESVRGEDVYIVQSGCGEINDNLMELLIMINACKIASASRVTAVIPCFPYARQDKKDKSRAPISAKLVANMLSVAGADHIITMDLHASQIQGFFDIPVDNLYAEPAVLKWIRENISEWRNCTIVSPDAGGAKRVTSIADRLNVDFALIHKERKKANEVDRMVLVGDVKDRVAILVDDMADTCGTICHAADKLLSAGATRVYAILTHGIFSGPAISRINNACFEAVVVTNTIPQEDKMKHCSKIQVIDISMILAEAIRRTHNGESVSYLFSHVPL

[3] = target: T1, PRPS1 (endogenous, mouse) (mouse (endogenous in NIH3T3 and C57BL/6 tissues)); test: SEC; native whole-cell lysates of parental NIH3T3 and HEK293T cells on Superose 6 Increase 3.2/300; fractions analysed by Western blot with internal size standards; digitonin lysis buffer pH 7.5, 200 mM NaCl
[4] = target: T3, PRPS2 (endogenous, mouse) (mouse (endogenous in NIH3T3 and C57BL/6 tissues)) (UniProt Q9CS42); test: as above
T3 sequence: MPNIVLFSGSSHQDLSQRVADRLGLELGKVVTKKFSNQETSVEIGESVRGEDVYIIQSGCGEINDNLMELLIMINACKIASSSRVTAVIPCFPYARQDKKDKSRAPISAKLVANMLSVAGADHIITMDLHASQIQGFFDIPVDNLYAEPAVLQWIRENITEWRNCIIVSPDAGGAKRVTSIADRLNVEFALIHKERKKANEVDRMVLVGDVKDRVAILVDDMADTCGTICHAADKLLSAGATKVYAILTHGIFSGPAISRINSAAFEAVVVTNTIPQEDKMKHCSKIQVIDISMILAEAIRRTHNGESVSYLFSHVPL

[5] = target: T1, PRPS1 (endogenous, mouse) (mouse (endogenous in NIH3T3 and C57BL/6 tissues)); test: SEC; native tissue lysates (liver, kidney, lung) of 12-week-old male C57BL/6 mice on Superose 6 Increase 3.2/300; fractions analysed by Western blot
[6] = target: T3, PRPS2 (endogenous, mouse) (mouse (endogenous in NIH3T3 and C57BL/6 tissues)); test: as above
[7] = target: T4, PRPS1 (endogenous, human) (human (endogenous in HEK293T)) (UniProt P60891); test: SEC; native whole-cell lysates of parental NIH3T3 and HEK293T cells on Superose 6 Increase 3.2/300; fractions analysed by Western blot with internal size standards; digitonin lysis buffer pH 7.5, 200 mM NaCl
T4 sequence: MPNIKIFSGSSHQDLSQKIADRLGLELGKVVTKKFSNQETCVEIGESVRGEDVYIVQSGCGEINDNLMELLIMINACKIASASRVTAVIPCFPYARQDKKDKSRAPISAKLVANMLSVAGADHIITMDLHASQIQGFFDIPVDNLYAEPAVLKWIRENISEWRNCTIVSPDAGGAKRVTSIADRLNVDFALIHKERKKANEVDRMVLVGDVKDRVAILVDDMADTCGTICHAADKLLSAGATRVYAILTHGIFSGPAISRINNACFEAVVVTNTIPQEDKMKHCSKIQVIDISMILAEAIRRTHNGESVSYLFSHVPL

[8] = target: T5, PRPSAP2 (endogenous, human) (human (endogenous in HEK293T)) (UniProt O60256); test: as above
T5 sequence: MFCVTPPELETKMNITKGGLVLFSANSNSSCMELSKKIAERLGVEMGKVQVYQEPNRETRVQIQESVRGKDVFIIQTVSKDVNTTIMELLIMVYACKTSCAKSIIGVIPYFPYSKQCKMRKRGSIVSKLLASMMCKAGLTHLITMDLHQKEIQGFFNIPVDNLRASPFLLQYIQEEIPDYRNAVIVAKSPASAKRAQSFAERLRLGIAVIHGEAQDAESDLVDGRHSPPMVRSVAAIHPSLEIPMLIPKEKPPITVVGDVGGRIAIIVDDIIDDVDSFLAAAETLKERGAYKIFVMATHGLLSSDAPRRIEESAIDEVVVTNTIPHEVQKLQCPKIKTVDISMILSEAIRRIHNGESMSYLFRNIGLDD

[9] = target: T6, PRPS2 (endogenous, human) (human (endogenous in HEK293T)) (UniProt P11908); test: as above
T6 sequence: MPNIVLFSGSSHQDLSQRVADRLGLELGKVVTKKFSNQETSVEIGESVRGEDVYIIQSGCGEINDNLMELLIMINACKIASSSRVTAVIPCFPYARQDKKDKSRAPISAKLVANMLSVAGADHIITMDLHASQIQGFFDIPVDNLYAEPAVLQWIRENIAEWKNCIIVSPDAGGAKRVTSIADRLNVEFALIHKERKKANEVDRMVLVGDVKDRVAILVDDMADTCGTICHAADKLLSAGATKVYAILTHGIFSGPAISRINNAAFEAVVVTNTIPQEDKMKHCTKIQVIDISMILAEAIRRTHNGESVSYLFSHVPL

B1: PRPSAP2 (endogenous, mouse) (protein, UniProt Q8R574 1-369)
chain: MFCVAPPELETKMNITKGGLVLFSANSNSSCMELSKKIAERLGVEMGKVQVYQEPNRETRVQIQESVRGKDVFIIQTISKDVNTTIMELLIMVYACKTSCAKSIIGVIPYFPYSKQCKMRKRGSIVSKLLASMMCKAGLTHLITMDLHQKEIQGFFNIPVDNLRASPFLLQYIQEEIPDYRNAVIVAKSPASAKRAQSFAERLRLGIAVIHGEAQDAESDLVDGRHSPPMVRSVAAIHPSLEIPMLIPKEKPPITVVGDVGGRIAIIVDDIIDDVDSFLAAAETLKERGAYKIFVMATHGLLSSDAPRLIEESAIDEVVVTNTIPHEIQKLQCPKIKTVDISMILSEAIRRIHNGESMSYLFRNIGLDD
binding [1]: binds
binding [2]: binds
binding [3]: binds
binding [4]: binds
binding [5]: binds
binding [6]: binds

B2: PRPS2 (endogenous, human) (enzyme, UniProt P11908-1 1-318)
chain: MPNIVLFSGSSHQDLSQRVADRLGLELGKVVTKKFSNQETSVEIGESVRGEDVYIIQSGCGEINDNLMELLIMINACKIASSSRVTAVIPCFPYARQDKKDKSRAPISAKLVANMLSVAGADHIITMDLHASQIQGFFDIPVDNLYAEPAVLQWIRENIAEWKNCIIVSPDAGGAKRVTSIADRLNVEFALIHKERKKANEVDRMVLVGDVKDRVAILVDDMADTCGTICHAADKLLSAGATKVYAILTHGIFSGPAISRINNAAFEAVVVTNTIPQEDKMKHCTKIQVIDISMILAEAIRRTHNGESVSYLFSHVPL
binding [7]: binds

B3: PRPSAP1 (endogenous, human) (protein, UniProt Q14558 1-356)
chain: MNAARTGYRVFSANSTAACTELAKRITERLGAELGKSVVYQETNGETRVEIKESVRGQDIFIIQTIPRDVNTAVMELLIMAYALKTACARNIIGVIPYFPYSKQSKMRKRGSIVCKLLASMLAKAGLTHIITMDLHQKEIQGFFSFPVDNLRASPFLLQYIQEEIPNYRNAVIVAKSPDAAKRAQSYAERLRLGLAVIHGEAQCTELDMDDGRHSPPMVKNATVHPGLELPLMMAKEKPPITVVGDVGGRIAIIVDDIIDDVESFVAAAEILKERGAYKIYVMATHGILSAEAPRLIEESSVDEVVVTNTVPHEVQKLQCPKIKTVDISLILSEAIRRIHNGESMAYLFRNITVDD
binding [8]: binds
binding [9]: binds

B4: PRPSAP2 (endogenous, human) (protein, UniProt O60256-1 1-369)
chain: MFCVTPPELETKMNITKGGLVLFSANSNSSCMELSKKIAERLGVEMGKVQVYQEPNRETRVQIQESVRGKDVFIIQTVSKDVNTTIMELLIMVYACKTSCAKSIIGVIPYFPYSKQCKMRKRGSIVSKLLASMMCKAGLTHLITMDLHQKEIQGFFNIPVDNLRASPFLLQYIQEEIPDYRNAVIVAKSPASAKRAQSFAERLRLGIAVIHGEAQDAESDLVDGRHSPPMVRSVAAIHPSLEIPMLIPKEKPPITVVGDVGGRIAIIVDDIIDDVDSFLAAAETLKERGAYKIFVMATHGLLSSDAPRRIEESAIDEVVVTNTIPHEVQKLQCPKIKTVDISMILSEAIRRIHNGESMSYLFRNIGLDD
binding [9]: binds

B5: exogenous PRPS2 (lentiviral PRPS2-ALFA) (enzyme, UniProt Q9CS42 1-318)
chain: MPNIVLFSGSSHQDLSQRVADRLGLELGKVVTKKFSNQETSVEIGESVRGEDVYIIQSGCGEINDNLMELLIMINACKIASSSRVTAVIPCFPYARQDKKDKSRAPISAKLVANMLSVAGADHIITMDLHASQIQGFFDIPVDNLYAEPAVLQWIRENITEWRNCIIVSPDAGGAKRVTSIADRLNVEFALIHKERKKANEVDRMVLVGDVKDRVAILVDDMADTCGTICHAADKLLSAGATKVYAILTHGIFSGPAISRINSAAFEAVVVTNTIPQEDKMKHCSKIQVIDISMILAEAIRRTHNGESVSYLFSHVPL
binding [1]: binds
